No constants are given. Whether binding was seen depends on the method and setting. In cells and extracts the contact can be indirect. Some entries that bind do so weakly or less than the wild type.
Legend:
[1] = biological target: Flag-tagged KLF4, full length, expressed in HepG2 cells (human) (UniProt O43474); test: co-IP; cytosolic and nuclear fractions of HepG2 cells co-transfected with Myc-USP11 and Flag-KLF4; IP with anti-Flag beads, blot with anti-Myc
[2] = biological target: Flag-tagged KLF4 (Krüppel-like factor 4), full length (human) (UniProt O43474); test: co-IP; cytosolic and nuclear fractions of HEK293 cells co-transfected with Myc-USP11 and Flag-KLF4; IP with anti-Flag beads, blot with anti-Myc
[3] = biological target: Flag-tagged KLF4 (Krüppel-like factor 4), full length (human) (UniProt O43474); test: co-IP; HEK293 cells co-transfected with Flag-KLF4 and Myc-USP11 (in Figure 2B also HA-Ub); Nonidet P-40 lysate; IP with anti-Flag beads, blot with anti-Myc

The chains behind the UniProt entries cited, without tags or fusion partners.
UniProt O43474: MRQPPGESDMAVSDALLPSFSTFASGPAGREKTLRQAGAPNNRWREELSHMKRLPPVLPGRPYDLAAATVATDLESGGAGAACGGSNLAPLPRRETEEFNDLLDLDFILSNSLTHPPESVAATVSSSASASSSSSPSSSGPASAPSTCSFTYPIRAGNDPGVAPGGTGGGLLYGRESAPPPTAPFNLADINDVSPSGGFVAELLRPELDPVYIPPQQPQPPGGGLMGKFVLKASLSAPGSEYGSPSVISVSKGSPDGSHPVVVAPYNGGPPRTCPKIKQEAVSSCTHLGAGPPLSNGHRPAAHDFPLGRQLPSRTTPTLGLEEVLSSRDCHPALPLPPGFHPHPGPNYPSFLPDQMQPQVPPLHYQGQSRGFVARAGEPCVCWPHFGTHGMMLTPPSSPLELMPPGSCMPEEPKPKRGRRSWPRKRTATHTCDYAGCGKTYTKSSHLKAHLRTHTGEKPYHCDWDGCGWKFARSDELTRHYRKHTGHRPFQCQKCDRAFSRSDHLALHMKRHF
UniProt P51784: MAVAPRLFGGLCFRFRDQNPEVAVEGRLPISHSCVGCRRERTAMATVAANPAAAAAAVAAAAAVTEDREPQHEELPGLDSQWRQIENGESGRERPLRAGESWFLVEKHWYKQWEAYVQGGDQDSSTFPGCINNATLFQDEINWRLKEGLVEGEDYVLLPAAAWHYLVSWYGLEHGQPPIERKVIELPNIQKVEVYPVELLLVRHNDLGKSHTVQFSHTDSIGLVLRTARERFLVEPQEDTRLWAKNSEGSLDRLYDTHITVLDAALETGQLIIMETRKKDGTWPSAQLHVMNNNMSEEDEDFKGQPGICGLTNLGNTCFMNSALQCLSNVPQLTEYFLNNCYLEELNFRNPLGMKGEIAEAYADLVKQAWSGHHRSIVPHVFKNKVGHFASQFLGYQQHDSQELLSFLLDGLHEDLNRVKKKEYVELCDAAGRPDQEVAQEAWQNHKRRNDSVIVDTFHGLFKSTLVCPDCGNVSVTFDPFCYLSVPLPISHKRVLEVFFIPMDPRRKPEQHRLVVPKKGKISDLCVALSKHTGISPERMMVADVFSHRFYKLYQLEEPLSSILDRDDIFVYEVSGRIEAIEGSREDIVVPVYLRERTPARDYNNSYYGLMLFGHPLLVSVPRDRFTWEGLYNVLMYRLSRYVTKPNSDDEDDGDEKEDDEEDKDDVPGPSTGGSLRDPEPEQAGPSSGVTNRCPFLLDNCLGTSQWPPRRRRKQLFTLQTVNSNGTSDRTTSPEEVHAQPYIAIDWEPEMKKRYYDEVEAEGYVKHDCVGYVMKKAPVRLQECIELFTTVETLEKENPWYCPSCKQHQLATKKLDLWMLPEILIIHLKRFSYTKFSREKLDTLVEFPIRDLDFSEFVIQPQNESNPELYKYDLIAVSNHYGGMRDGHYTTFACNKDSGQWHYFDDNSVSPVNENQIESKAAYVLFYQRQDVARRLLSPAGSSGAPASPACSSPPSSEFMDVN

| Substance | binding [1] | binding [2] | binding [3] |
| --- | --- | --- | --- |
| Myc-tagged USP11, full length, expressed in HepG2 cells (from UniProt P51784 1-963) (enzyme) | binds |  |  |
| Myc-tagged USP11 (ubiquitin-specific peptidase 11), full length, wild type (from UniProt P51784 1-963) (enzyme) |  | binds | binds |

Source: PMC8278108
